Laboratory results reported in publication PMC4911930.

Protein sequences, listed by entry. Tags and fused reporters are not part of them.
UniProt Q5EE01: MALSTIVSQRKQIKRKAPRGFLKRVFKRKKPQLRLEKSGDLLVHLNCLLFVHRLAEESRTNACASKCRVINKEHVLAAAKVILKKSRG
UniProt A8MT69: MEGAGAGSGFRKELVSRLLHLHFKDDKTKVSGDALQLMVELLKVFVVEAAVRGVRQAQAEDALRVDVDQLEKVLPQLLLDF
UniProt P06748: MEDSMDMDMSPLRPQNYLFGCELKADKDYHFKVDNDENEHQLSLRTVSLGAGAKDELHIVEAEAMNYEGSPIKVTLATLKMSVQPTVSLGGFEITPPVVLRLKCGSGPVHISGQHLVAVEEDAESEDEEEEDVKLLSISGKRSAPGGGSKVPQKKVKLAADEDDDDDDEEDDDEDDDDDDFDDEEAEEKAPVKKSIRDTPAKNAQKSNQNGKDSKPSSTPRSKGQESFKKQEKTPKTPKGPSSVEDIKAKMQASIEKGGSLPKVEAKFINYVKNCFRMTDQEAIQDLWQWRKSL
UniProt Q9Y5B9: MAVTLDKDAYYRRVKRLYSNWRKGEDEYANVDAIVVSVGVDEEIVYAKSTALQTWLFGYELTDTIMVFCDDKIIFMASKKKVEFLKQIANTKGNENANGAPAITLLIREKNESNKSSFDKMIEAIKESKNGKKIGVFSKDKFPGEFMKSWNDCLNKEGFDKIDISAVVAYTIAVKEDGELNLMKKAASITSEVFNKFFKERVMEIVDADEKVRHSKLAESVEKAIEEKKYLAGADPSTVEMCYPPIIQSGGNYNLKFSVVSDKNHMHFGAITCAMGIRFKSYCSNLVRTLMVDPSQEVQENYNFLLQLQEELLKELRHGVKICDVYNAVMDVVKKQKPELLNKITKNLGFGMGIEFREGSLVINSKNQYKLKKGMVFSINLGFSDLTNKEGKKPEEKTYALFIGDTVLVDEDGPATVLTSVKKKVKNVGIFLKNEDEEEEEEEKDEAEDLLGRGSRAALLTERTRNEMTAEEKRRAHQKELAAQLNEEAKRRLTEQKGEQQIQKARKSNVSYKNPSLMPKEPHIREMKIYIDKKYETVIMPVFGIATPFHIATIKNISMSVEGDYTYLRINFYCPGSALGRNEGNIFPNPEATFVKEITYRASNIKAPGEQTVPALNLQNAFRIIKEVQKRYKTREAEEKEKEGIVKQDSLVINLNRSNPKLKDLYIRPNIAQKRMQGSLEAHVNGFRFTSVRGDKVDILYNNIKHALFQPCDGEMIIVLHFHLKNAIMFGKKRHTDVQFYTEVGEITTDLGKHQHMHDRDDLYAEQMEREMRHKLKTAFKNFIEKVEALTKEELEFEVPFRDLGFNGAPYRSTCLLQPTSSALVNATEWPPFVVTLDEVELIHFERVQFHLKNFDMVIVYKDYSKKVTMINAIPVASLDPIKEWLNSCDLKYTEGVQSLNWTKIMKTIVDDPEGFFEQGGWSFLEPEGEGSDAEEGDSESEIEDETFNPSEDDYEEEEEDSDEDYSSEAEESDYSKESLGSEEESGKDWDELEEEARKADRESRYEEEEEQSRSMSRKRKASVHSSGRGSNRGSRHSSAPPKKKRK

biological target: CENP-W-GFP (UniProt Q5EE01); test: affinity purification with mass spectrometry; GFP-Trap pull-down of CENP-W-GFP from low-salt and high-salt extracts of HeLa cells; immunoprecipitation buffer with 300 mM NaCl; GFP alone as control; biological triplicates

Row | binding | Substance
1 | no binding | CENP-X (from UniProt A8MT69 1-81)
2 | binds | NPM1 (from UniProt P06748 1-294)
3 | binds | Spt16 (from UniProt Q9Y5B9 1-1047)

No constants are given. Whether binding was seen depends on the method and setting. Binding seen in cells or lysates may run through a third protein. These calls come from enrichment with a bait or labelling near it, and not all partners need be listed. A no says only that the protein was not detected with the bait.
